Measured values from doi:10.1101/2024.09.20.614154.
No constants are given. Whether binding was seen depends on the method and setting. Some entries that bind do so weakly or less than the wild type.

Protein sequences, listed by entry. Tags and fused reporters are not part of them. Lines headed by an entry give the natural chain unless they say otherwise; changes in a name come on top.
UniProt Q9PL60, whole entry, looked up, stated change not applied: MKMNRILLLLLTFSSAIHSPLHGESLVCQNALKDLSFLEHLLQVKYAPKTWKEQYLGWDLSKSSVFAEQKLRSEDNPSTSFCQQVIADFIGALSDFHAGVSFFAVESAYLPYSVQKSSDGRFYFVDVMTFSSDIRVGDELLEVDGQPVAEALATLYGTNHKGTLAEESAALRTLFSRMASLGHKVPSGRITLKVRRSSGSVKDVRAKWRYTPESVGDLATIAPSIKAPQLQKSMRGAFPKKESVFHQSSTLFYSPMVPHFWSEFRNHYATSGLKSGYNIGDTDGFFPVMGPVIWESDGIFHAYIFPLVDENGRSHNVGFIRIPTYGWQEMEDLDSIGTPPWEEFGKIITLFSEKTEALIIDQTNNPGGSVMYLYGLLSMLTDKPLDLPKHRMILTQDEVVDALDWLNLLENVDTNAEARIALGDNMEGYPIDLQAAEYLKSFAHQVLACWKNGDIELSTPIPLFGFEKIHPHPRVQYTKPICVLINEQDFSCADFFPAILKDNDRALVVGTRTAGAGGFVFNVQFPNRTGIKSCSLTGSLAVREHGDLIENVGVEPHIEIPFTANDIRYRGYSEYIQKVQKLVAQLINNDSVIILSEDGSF

Tests used:
[1] = molecular target: Chlamydia muridarum Chlamydial Protease Activity Factor, inactive variant S491A (Chlamydia muridarum) (UniProt Q9PL60); experiment: SEC
[2] = molecular target: Chlamydia muridarum Chlamydial Protease Activity Factor, inactive variant S491A with K232Q (Chlamydia muridarum) (UniProt Q9PL60); experiment: SEC

## Chlamydia muridarum Chlamydial Protease Activity Factor, inactive variant S491A (from UniProt Q9PL60 1-601) (enzyme)
[1]
  binding: binds

## Chlamydia muridarum Chlamydial Protease Activity Factor, inactive variant S491A with K232Q (from UniProt Q9PL60 1-601) (enzyme)
[2]
  binding: binds
